Measurements from PubChem BioAssay (NCATS).
This list was built around the results that the source calls inconclusive (neither active nor inactive); the mix of calls is not that of the screen. A potency beside an inconclusive call is a rough fit, not a confirmed value. Calls of active or inactive are those of the source. Calls come from the whole dose curve; as a rule, active = well fitted curve in the direction sought with a large enough effect; inconclusive = small, poorly fitted or top-dose-only effect, or another doubt; inactive = no such curve, though single readings can be large; an effect the other way counts as inactive or inconclusive.

Assays:
[1] = Quantitative High-Throughput drug screen in 47 multiple myeloma cell lines against the NCATS MIPE library collection: KMS20_JCRB cell viability assay (AID 1918973); conditions: CellTiter-Glo ATP, 48 h; viability (% of DMSO): at 45.8 µM (top of the series); note: nearly all actives have a fitted effect of over 45% in size
Outline: (§1)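 Myeloma cells (500 per well) were exposed to MIPE 4.0 compounds by pin transfer and incubated 48 hours at 37C, 5% CO2. Viability was read as ATP by CellTiter-Glo luminescence, normalised to DMSO (100%) and media-only (0%) wells.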

[2] = Quantitative High-Throughput drug screen in 47 multiple myeloma cell lines against the NCATS MIPE library collection: KMS21BM_JCRB cell viability assay (AID 1918974); conditions: ATP luminescence, 48 h; viability: at 45.8 µM (top of the series) unless noted
Outline: as §1

[3] = Quantitative High-Throughput drug screen in 47 multiple myeloma cell lines against the NCATS MIPE library collection: KMS26_JCRB cell viability assay (AID 1918975); conditions: KMS26 myeloma cells viability, CellTiter-Glo ATP, 48 h; viability (% of DMSO): at 45.8 µM (top of the series); note: nearly all actives have a fitted effect of over 45% in size
Outline: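 Myeloma cell lines, 500 cells per well, exposed to MIPE 4.0 library compounds for 48 h at 37C, 5% CO2. Viability from ATP by CellTiter-Glo luminescence; normalised to DMSO (100%) and media-only (0%) wells.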

[4] = Quantitative High-Throughput drug screen in 47 multiple myeloma cell lines against the NCATS MIPE library collection: MMM1_PLB cell viability assay (AID 1918976); note: nearly all actives have a fitted effect of over 35% in size
Outline: (§2)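 MIPE 4.0 approved/investigational drugs; 500 cells/well; 48 h 37 °C humidified 5% CO2; CTG luminescence readout; DMSO = 100%, media = 0% viability.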

[5] = Quantitative High-Throughput drug screen in 47 multiple myeloma cell lines against the NCATS MIPE library collection: MOLP8_DSMZ cell viability assay (AID 1918977); conditions: MOLP8 myeloma viability, CellTiter-Glo ATP luminescence, 48 h; viability (% of control): at 45.8 µM (top of the series); note: nearly all actives have a fitted effect of over 45% in size
Outline: as §2

[6] = Quantitative High-Throughput drug screen in 47 multiple myeloma cell lines against the NCATS MIPE library collection: NCIH929_DSMZ cell viability assay (AID 1918978); note: nearly all actives have a fitted effect of over 35% in size
Outline: as §2

[7] = Quantitative High-Throughput drug screen in 47 multiple myeloma cell lines against the NCATS MIPE library collection: OCIMY1_PLB cell viability assay (AID 1918979); conditions: OCI-MY1 myeloma viability, CellTiter-Glo ATP, 48 h; viability: at 45.8 µM (top of the series) unless noted; note: nearly all actives have a fitted effect of over 35% in size
Outline: as §2

[8] = Quantitative High-Throughput drug screen in 47 multiple myeloma cell lines against the NCATS MIPE library collection: MM1S_ATCC cell viability assay (AID 1918980); note: nearly all actives have a fitted effect of over 45% in size
Outline: as §2

[9] = Quantitative High-Throughput drug screen in 47 multiple myeloma cell lines against the NCATS MIPE library collection: L363_DSMZ cell viability assay (AID 1918984); conditions: L363 myeloma viability, CellTiter-Glo ATP luminescence, 48 h; viability (% of control): at 45.8 µM (top of the series); note: nearly all actives have a fitted effect of over 40% in size
Outline: as §2

[10] = Quantitative High-Throughput drug screen in 47 multiple myeloma cell lines against the NCATS MIPE library collection: KMS34_JCRB cell viability assay (AID 1918985); conditions: KMS34 myeloma viability, CellTiter-Glo ATP luminescence, 48 h; viability, percent of control: at 45.8 µM (top of the series); note: nearly all actives have a fitted effect of over 40% in size
Outline: as §2

[11] = Quantitative High-Throughput drug screen in 47 multiple myeloma cell lines against the NCATS MIPE library collection: OCIMY7_PLB cell viability assay (AID 1918987); conditions: OCI-MY7 myeloma viability, CellTiter-Glo ATP, 48 h; viability (% of DMSO): at 45.8 µM (top of the series); note: nearly all actives have a fitted effect of over 65% in size
Outline: as §2

[12] = Quantitative High-Throughput drug screen in 47 multiple myeloma cell lines against the NCATS MIPE library collection: SKMM1_PLB cell viability assay (AID 1919863); conditions: SKMM1 myeloma viability, CellTiter-Glo ATP, 48 h; viability: hits give low values; note: nearly all actives have a fitted effect of over 35% in size
Outline: as §2

[13] = Quantitative High-Throughput drug screen in 47 multiple myeloma cell lines against the NCATS MIPE library collection: U266_ATCC cell viability assay (AID 1919864); conditions: U266 myeloma viability, CellTiter-Glo ATP luminescence, 48 h; viability (% of DMSO control): at 45.8 µM (top of the series); note: nearly all actives have a fitted effect of over 35% in size
Outline: as §2

[14] = Quantitative High-Throughput drug screen in 47 multiple myeloma cell lines against the NCATS MIPE library collection: XG6_PLB cell viability assay (AID 1919865); conditions: XG6 myeloma viability, CellTiter-Glo ATP luminescence, 48 h; viability (% of control): at 45.8 µM (top of the series); note: nearly all actives have a fitted effect of over 40% in size
Outline: as §2

[15] = Quantitative High-Throughput drug screen in 47 multiple myeloma cell lines against the NCATS MIPE library collection: MM1R_ATCC cell viability assay (AID 1918981); note: nearly all actives have a fitted effect of over 35% in size
Outline: as §2

[16] = Quantitative High-Throughput drug screen in 47 multiple myeloma cell lines against the NCATS MIPE library collection: LP1_DSMZ cell viability assay (AID 1918982); conditions: LP1 myeloma viability, CellTiter-Glo ATP luminescence, 48 h; viability (% of control): at 45.8 µM (top of the series); note: nearly all actives have a fitted effect of over 35% in size
Outline: as §2

[17] = Quantitative High-Throughput drug screen in 47 multiple myeloma cell lines against the NCATS MIPE library collection: OCIMY5_PLB cell viability assay (AID 1918988); conditions: OCI-MY5 myeloma viability, ATP luminescence, 48 h; viability, % of control: at 45.8 µM (top of the series); note: nearly all actives have a fitted effect of over 65% in size;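 for viability, % of control: 100% = DMSO-treated wells and 0% = wells with media alone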
Outline: as §2

[18] = Quantitative High-Throughput drug screen in 47 multiple myeloma cell lines against the NCATS MIPE library collection: OPM1_PLB cell viability assay (AID 1918989); note: nearly all actives have a fitted effect of over 40% in size
Outline: as §2

[19] = Quantitative High-Throughput drug screen in 47 multiple myeloma cell lines against the NCATS MIPE library collection: KMS28PE_JCRB cell viability assay (AID 1918983); note: nearly all actives have a fitted effect of over 35% in size
Outline: as §2

[20] = Quantitative High-Throughput drug screen in 47 multiple myeloma cell lines against the NCATS MIPE library collection: XG1_PLB cell viability assay (AID 1919866); conditions: CellTiter-Glo ATP, 48 h; viability: at 45.8 µM (top of the series); note: nearly all actives have a fitted effect of over 35% in size
Outline: as §2
Potency is the fitted concentration of half-maximal effect.

Cc1nnc(C(=O)NC(C)(C)c2nc(C(=O)NCc3ccc(F)cc3)c(O)c(=O)n2C)o1
inactive: Potency [5] | Potency [6] | Potency [7] | Potency [8] | Potency [9] | Potency [10] | Potency [11] | viability [12] 152% | Potency [13] | Potency [14]
active: Potency [4] 7.43 µM
inconclusive: Potency [1] 0.0033 µM [rising, full curve, poor fit] | Potency [2] 37.2 µM [rising, partial curve] | Potency [3] 0.0037 µM [rising, full curve, poor fit]

CCC(=O)O[C@]1(C(=O)SCF)[C@H](C)C[C@H]2[C@@H]3C[C@H](F)C4=CC(=O)C=C[C@]4(C)[C@@]3(F)[C@@H](O)C[C@@]21C
inactive: Potency [3] | Potency [5] | Potency [15] | Potency [16] | Potency [18]
inconclusive: Potency [1] 0.0332 µM [cytotoxic, full curve, poor fit] | Potency [2] 0.0105 µM [rising, full curve, poor fit] | Potency [4] 0.0023 µM [rising, full curve, poor fit] | Potency [6] 20.9 µM [cytotoxic, partial curve, poor fit] | Potency [7] 11.8 µM [rising, single point] | Potency [8] 4.69 µM [cytotoxic, partial curve, poor fit] | Potency [9] 0.001 µM [cytotoxic] | Potency [12] 0.0017 µM [rising, full curve, poor fit] | Potency [13] 37.2 µM [cytotoxic, single point]
active: Potency [17] 23.5 µM

Cc1ccc(S(=O)(=O)OCC(=O)Nc2ccc(C(=O)O)c(O)c2)cc1
inactive: Potency [5] | viability [12] 102%
active: Potency [6] 7.43 µM | Potency [17] 18.7 µM
inconclusive: Potency [1] 33.2 µM [cytotoxic, single point] | Potency [2] 20.9 µM [cytotoxic, partial curve, poor fit] | Potency [3] 33.2 µM [cytotoxic, single point] | Potency [4] 33.2 µM [cytotoxic, single point] | Potency [7] 0.0526 µM [rising, full curve, poor fit] | Potency [8] 37.2 µM [cytotoxic, single point] | Potency [19] 37.2 µM [cytotoxic, single point] | Potency [9] 37.2 µM [cytotoxic, single point] | Potency [10] 8.33 µM [rising, single point] | Potency [11] 5.9 µM [cytotoxic, full curve, poor fit] | Potency [13] 29.6 µM [cytotoxic, single point]

NS(=O)(=O)c1cc2c(cc1Cl)NC(C(Cl)Cl)NS2(=O)=O (stereo not given)
inconclusive: Potency [3] 23.5 µM [rising, single point] | Potency [4] 0.0015 µM [rising, full curve, poor fit] | Potency [8] 0.0526 µM [rising, full curve, poor fit] | Potency [11] 16.6 µM [cytotoxic, partial curve, poor fit] | Potency [13] 0.0118 µM [rising, full curve, poor fit]
inactive: Potency [1] | Potency [2] | Potency [5] | Potency [6] | Potency [15] | Potency [19] | Potency [9] | Potency [17] | Potency [18] | viability [12] 112% | Potency [14]

CC(=O)[C@H]1CC[C@H]2[C@@H]3CC=C4C[C@@H](O)CC[C@]4(C)[C@H]3CC[C@]12C
inconclusive: Potency [1] 0.0017 µM [cytotoxic, full curve, poor fit] | Potency [2] 0.0935 µM [cytotoxic, full curve, poor fit] | Potency [3] 0.743 µM [cytotoxic, full curve, poor fit] | Potency [4] 16.6 µM [cytotoxic, partial curve, poor fit] | Potency [5] 0.001 µM [cytotoxic] | Potency [9] 7.43 µM [cytotoxic, partial curve, poor fit] | Potency [11] 0.0012 µM [rising, full curve, poor fit] | Potency [17] 7.43 µM [cytotoxic, full curve, poor fit] | Potency [13] 20.9 µM [cytotoxic, partial curve, poor fit]
inactive: Potency [6] | Potency [8] | Potency [10] | viability [12] 123% | Potency [14]

Cc1cc2nc3c(=O)[nH]c(=O)nc-3n(CC(O)C(O)C(O)CO)c2cc1C (stereo not given)
inconclusive: Potency [1] 16.6 µM [cytotoxic, partial curve, poor fit] | Potency [2] 11.8 µM [rising, single point] | Potency [3] 1.66 µM [cytotoxic, full curve, poor fit] | Potency [4] 0.332 µM [cytotoxic, full curve, poor fit] | Potency [15] 0.0418 µM [cytotoxic, full curve, poor fit] | Potency [9] 0.0118 µM [cytotoxic, full curve, poor fit] | Potency [10] 3.72 µM [cytotoxic, full curve, poor fit] | Potency [11] 18.7 µM [cytotoxic, partial curve, poor fit] | Potency [17] 18.7 µM [cytotoxic, partial curve, poor fit] | Potency [20] 5.9 µM [cytotoxic, partial curve, poor fit]
inactive: Potency [5] | Potency [6] | Potency [8] | Potency [13]
active: Potency [18] 18.7 µM

O=C(O)c1ccc(-n2nc(-c3ccccc3O)nc2-c2ccccc2O)cc1
inconclusive: Potency [1] 33.2 µM [cytotoxic, partial curve, poor fit] | Potency [3] 37.2 µM [cytotoxic, single point] | Potency [4] 0.662 µM [rising, partial curve] | Potency [5] 33.2 µM [cytotoxic, single point] | Potency [6] 26.4 µM [cytotoxic, single point] | Potency [7] 33.2 µM [cytotoxic, single point] | Potency [8] 33.2 µM [cytotoxic, single point] | Potency [15] 66.2 µM [cytotoxic, single point] | Potency [16] 37.2 µM [cytotoxic, single point] | Potency [9] 13.2 µM [cytotoxic, partial curve, poor fit] | Potency [10] 26.4 µM [cytotoxic, single point] | Potency [11] 37.2 µM [cytotoxic, partial curve, poor fit] | Potency [17] 37.2 µM [cytotoxic, single point] | Potency [12] 33.2 µM [cytotoxic, single point] | Potency [13] 37.2 µM [cytotoxic, single point] | Potency [20] 14.8 µM [cytotoxic, partial curve]
inactive: Potency [19]
active: Potency [2] 20.9 µM

Cn1cc(-c2ccc3nnc(Sc4ccc5ncccc5c4)n3n2)cn1
active: Potency [4] 16.6 µM | Potency [8] 4.18 µM | Potency [17] 13.2 µM
inactive: Potency [11]
inconclusive: Potency [1] 0.0526 µM [cytotoxic, full curve, poor fit] | Potency [2] 37.2 µM [rising, partial curve, poor fit] | Potency [3] 16.6 µM [cytotoxic, partial curve, poor fit] | Potency [5] 29.6 µM [cytotoxic, partial curve] | Potency [6] 37.2 µM [cytotoxic, partial curve, poor fit] | Potency [19] 33.2 µM [cytotoxic, single point] | Potency [9] 0.0935 µM [cytotoxic, full curve, poor fit] | Potency [10] 13.2 µM [cytotoxic, partial curve, poor fit] | Potency [12] 37.2 µM [cytotoxic, single point] | Potency [13] 3.72 µM [cytotoxic, partial curve, poor fit]

Cc1c(C(=O)Nc2ccc(N3C[C@@H](C)O[C@@H](C)C3)nc2)cccc1-c1ccc(OC(F)(F)F)cc1
active: Potency [4] 11.8 µM | Potency [5] 13.2 µM | Potency [11] 9.35 µM
inconclusive: Potency [1] 1.18 µM [cytotoxic, partial curve, poor fit] | Potency [2] 29.6 µM [rising, partial curve, poor fit] | Potency [3] 11.8 µM [cytotoxic, partial curve, poor fit] | Potency [6] 5.9 µM [cytotoxic, partial curve, poor fit] | Potency [7] 18.7 µM [cytotoxic, partial curve] | Potency [15] 14.8 µM [cytotoxic, partial curve] | Potency [9] 0.209 µM [cytotoxic, full curve, poor fit] | Potency [10] 20.9 µM [cytotoxic, partial curve, poor fit] | Potency [18] 7.43 µM [cytotoxic, single point] | Potency [14] 3.32 µM [cytotoxic, full curve, poor fit] | Potency [20] 14.8 µM [cytotoxic, partial curve, poor fit]
